# Screen size: about 53,000 sequences; about 3,700 (7%) were called active.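 How the source made its calls: active means gene knockdowns whose robust z-score for IL-1 alpha signal is at least 2 or at most -2, so actives lie on both sides; inactive means the rest.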 The list shows a part of the results.
# Assay: Components of the Cytosolic LPS Sensing Pathway: Gene Identification via Genome-wide siRNA Screen;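 further: robust z of the log signal after scaling to non-targeting control siRNA wells of the plate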
# Conditions: RAW264.7 macrophages, IL-1a HTRF, actives lie on both sides, screened at 100 nM (by protocol), cells primed 5 h with Pam3CSK4 first
# Outline: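 RAW264.7; siRNA 100 nM final, RNAiMAX, 48h 37 degrees C; Pam3CSK4 5 h; LipidA + TransIT-TKO 24 h; IL-1a HTRF; CellTiter-Glo viability; robust z vs negative-control median.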
row,Sequence,z-score
1,GGCAGCAAAGUCAAGAUGUTT against Msgn1,inactive: -1.82
2,CGAUGGGACCAAGAUUAGUTT against Vstm2a,inactive: 0.277
3,GGGUUAAUGCAUCAUUUGATT against Mef2d,inactive: 0.681
4,GCCAUCUGCCAGUAUACAATT against Gm5148,inactive: -0.726
5,GGCAUUUAAUAUCAGGUCATT against Zfp62,inactive: 0.167
6,CCCAAUGAACAAGCUUAAGTT against Eif3g,inactive: -1.19
7,CCUCACUCCUUUCUGUAAATT against Mfsd4b5,inactive: -0.61
8,GCGUGAAAAUGGAUAUCUUTT against Stab1,inactive: -0.141
9,GGAAAAGAUGCCUGUAUUUTT against Sgcd,inactive: -0.422
10,GGCAUCACGUCAGAGUACATT against Pea15b,inactive: -1.27
11,GCCUUUGAGCUCAUCUAUATT against Ttll3,inactive: 0.149
12,GGGAACAAGACAACACAGCTT against Adam11,active: 2.03
13,GGACUAUGACCCAUAUAGUTT against Zc3h8,inactive: 0.538
14,GGAUGUUAAUGGAUUCACATT against Ptprt,inactive: -1.86
15,GGACAUUAUCAAGUUUCUGTT against Fkbp3,inactive: 0.525
16,CCAAGACUGUGACAAGUUUTT against Ctsz,inactive: -0.557
17,CCUCCUCCAAUUAAAGACATT against Med7,inactive: -0.0133
18,GGAAACGGUGCGACUUCAATT against Fam13c,inactive: -0.585
19,GGCCUGAGGACAUUGAAUATT against Naa20,inactive: 1.18
20,CGAGCAUGCUAAAUAUAUUTT against Zfp516,inactive: -0.247
21,GGAAGCUGUAGAAACACAUTT against Nbn,inactive: 0.42
22,GGCCCAUUGAUCUGUGAUATT against Klk1b8,inactive: -0.526
23,GCACUGAUGUAAGGUAACCTT against Prdm4,active: 2.48
24,GCCUUAAGUGGAUUUAGGATT against H2ac8,inactive: 1.79
25,GGGAUUUAGCACAAGAUACTT against Brinp3,inactive: 0.606
26,GGACGUGCUGUAUUUCAAGTT against Gal3st1,inactive: 0.162
27,CCUUCAUUAACAGACUACUTT against Pias2,inactive: -0.101
28,CGUCUAUCUUGGAUUACUATT against Dll1,active: 2.11
29,GGAUAUUCUGGACCACUGATT against Myoz2,inactive: -0.288
30,GGCUGAAAAUGGGAAGCUUTT against Gm5069,inactive: 0.0536

# Some values from the entries so far:
# z-score, CGAGCAUGCUAAAUAUAUUTT against Zfp516 reads inactive: -0.247
# z-score, GCCAUCUGCCAGUAUACAATT against Gm5148 reads inactive: -0.726
